Experimental data taken from article PMC3743775.
Results are given in words; binding and its absence hold for the method and conditions named. Binding seen in cells or lysates may run through a third protein. Some binding calls cover weakened binding; strength is not graded here.

Protein sequences, listed by entry. Tags and fused reporters are not part of them. Residues count along the entry.
UniProt Q8TDQ0, residues 22-301: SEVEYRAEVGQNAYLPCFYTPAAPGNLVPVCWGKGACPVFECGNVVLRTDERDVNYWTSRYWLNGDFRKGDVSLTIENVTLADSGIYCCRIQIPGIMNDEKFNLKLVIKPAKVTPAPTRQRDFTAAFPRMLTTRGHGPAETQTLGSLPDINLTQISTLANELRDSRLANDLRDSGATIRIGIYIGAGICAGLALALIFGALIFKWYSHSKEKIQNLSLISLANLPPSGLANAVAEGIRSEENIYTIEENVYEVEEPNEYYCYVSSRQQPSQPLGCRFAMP

Columns and labels:
[1] = target: galectin-9 (Gal-9) (human (endogenous in primary CD14+ M/MØ)) (UniProt O00182); test: co-IP; as above, repeated with 30 mM α-lactose added to the M/MØ cell lysates before the co-ip to inhibit random binding of Gal-9 to Tim-3
[2] = target: galectin-9 (Gal-9) (human (endogenous in primary CD14+ M/MØ)) (UniProt O00182); test: co-IP; lysates of 1 x 10^7 purified human M/MØ, stimulated with or without 1 µg/ml LPS and 2.5 µg/ml R848 for 6 h; precipitated with anti-Gal-9 (or IgG) and Protein A/G PLUS-agarose at 4 °C, blot probed with anti-Tim-3

binding [1]: binds
binding [2]: binds
Sequence: T cell immunoglobulin mucin domain-3 (Tim-3) (from UniProt Q8TDQ0 22-301) (receptor)
